PMC7188212
These are yes or no findings as the source states them, for the method shown.

What was measured:
[1] = target: T1, Plasmodium falciparum Hsp70-Hsp90 organising protein (PfHop) (Plasmodium falciparum), Q8ILC1; assay: SEC; HiLoad 16/600 Superdex 200 pg, buffer C (10 mM Tris-HCl pH 8, 300 mM NaCl, 5% glycerol, 0.2 mM TCEP); reducing conditions; fractions analysed by SDS-PAGE; both purified; conditions: remark: other sources report otherwise
T1 chain: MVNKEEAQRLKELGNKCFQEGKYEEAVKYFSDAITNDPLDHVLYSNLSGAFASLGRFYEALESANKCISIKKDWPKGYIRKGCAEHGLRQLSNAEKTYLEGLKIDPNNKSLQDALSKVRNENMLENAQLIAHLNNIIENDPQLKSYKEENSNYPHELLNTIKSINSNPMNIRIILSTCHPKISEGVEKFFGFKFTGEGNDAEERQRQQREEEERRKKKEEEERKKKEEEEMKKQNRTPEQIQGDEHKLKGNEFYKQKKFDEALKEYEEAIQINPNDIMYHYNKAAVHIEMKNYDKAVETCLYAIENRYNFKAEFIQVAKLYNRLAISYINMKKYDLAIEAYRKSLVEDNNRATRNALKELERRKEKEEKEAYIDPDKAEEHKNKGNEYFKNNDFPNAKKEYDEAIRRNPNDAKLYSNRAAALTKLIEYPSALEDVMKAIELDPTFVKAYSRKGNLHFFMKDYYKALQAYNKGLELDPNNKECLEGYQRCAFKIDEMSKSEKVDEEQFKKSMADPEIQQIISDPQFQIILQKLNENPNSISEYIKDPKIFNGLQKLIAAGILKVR

[2] = target: T1, Plasmodium falciparum Hsp70-Hsp90 …; assay: SEC-MALS; Superdex S200 Increase 10/300 GL, buffer C (10 mM Tris-HCl pH 8, 300 mM NaCl, 5% glycerol, 0.2 mM TCEP), 100 μg PfHop injected, 0.5 ml/min; mini DAWN TREOS MALS detector; BSA and ovalbumin as molecular-weight controls; both purified; conditions: remark: other sources report otherwise

B1: Plasmodium falciparum Hsp70-Hsp90 organising protein (PfHop), Q8ILC1 1-564 (protein)
chain: T1 chain
B1 was tested, and the binding [1] was “no binding” and the binding [2] was “no binding (tested: 100 μg of PfHop injected)”.
